# Measured values as given in PMC11039524.
# Sequences of proteins named here, by UniProt entry; tags and fusion partners are left off.
# UniProt Q15370: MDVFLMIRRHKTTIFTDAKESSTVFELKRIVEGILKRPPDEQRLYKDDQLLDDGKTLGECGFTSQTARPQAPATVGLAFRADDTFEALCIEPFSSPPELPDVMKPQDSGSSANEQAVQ
# UniProt Q8N726: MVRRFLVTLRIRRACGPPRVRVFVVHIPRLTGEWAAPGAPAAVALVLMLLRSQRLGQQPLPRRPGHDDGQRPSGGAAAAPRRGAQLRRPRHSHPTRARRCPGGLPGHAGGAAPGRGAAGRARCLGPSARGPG
# These are yes or no findings as the source states them, for the method shown. Binding seen in cells or lysates may run through a third protein. Some entries that bind do so weakly or less than the wild type.
# Target: Elongin B (human (endogenous in MDA-MB-231)) (UniProt Q15370)
# Test: co-IP; endogenous proteins; MDA-MB-231 cells pretreated with MG-132 for 2 h; NP-40 lysis buffer (50 mM Tris-HCl pH 7.5, 150 mM NaCl, 0.5% NP-40, 1 mM PMSF); lysate incubated with anti-ELOB antibody or control IgG overnight at 4°C, protein A/G magnetic beads; immunoblot with anti-p14/ARF
substance,measurement,value
p14/ARF (from UniProt Q8N726 1-132),binding,binds
